Results published in publication PMC10082830, “A tailored tetravalent peptide displays dual functions to inhibit amyloid β production and aggregation” (Communications Biology, 2023).
Results are given in words; binding and its absence hold for the method and conditions named. In cells and extracts the contact can be indirect.

Target: T1, biotinylated LME-mono
T1 sequence (peptide, biotin (position not stated)): PKLRMKE
Assay: pull-down; 7WD10 cells treated with biotinylated LME-tet (50 µM) or LME-mono (200 µM) for 30 min at 37 °C, lysed; lysates with streptavidin beads 24 h at 4 °C; western blot; only the target purified

C-terminal fragment β (C99) (human) (domain or fragment)
binding: no binding (tested: 200 µM LME-mono)
